Measured values: publication doi:10.1101/2024.11.18.623856
These are yes or no findings as the source states them, for the method shown. Binding seen in cells or lysates may run through a third protein. Some results given as binding are weak or reduced against the parent protein; the word gives no strength.

By UniProt entry, the sequences of proteins in these tests, tags left out. Residues count along the entry.
UniProt Q14833, residues 33-912: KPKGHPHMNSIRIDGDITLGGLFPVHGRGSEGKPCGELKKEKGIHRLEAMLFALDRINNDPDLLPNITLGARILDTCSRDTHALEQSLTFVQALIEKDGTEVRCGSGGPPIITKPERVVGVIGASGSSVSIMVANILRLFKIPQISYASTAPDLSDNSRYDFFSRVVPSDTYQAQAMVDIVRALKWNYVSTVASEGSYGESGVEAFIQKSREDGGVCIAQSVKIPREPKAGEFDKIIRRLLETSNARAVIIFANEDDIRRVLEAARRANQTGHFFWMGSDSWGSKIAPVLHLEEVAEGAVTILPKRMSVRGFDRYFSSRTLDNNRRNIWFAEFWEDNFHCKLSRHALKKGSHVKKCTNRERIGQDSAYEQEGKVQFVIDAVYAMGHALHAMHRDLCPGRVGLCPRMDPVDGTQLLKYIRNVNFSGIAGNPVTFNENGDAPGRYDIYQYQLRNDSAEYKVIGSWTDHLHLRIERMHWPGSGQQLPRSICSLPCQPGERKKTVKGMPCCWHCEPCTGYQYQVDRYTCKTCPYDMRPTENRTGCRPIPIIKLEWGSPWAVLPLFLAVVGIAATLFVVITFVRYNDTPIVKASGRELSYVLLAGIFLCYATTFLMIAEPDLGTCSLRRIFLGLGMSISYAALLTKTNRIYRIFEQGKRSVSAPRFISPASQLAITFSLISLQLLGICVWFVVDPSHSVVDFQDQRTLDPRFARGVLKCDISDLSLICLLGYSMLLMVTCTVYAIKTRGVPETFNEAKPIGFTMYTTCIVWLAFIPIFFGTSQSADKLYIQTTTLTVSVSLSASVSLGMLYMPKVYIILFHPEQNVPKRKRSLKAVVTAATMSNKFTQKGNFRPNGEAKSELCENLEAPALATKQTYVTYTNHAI
UniProt Q14831, residues 35-915: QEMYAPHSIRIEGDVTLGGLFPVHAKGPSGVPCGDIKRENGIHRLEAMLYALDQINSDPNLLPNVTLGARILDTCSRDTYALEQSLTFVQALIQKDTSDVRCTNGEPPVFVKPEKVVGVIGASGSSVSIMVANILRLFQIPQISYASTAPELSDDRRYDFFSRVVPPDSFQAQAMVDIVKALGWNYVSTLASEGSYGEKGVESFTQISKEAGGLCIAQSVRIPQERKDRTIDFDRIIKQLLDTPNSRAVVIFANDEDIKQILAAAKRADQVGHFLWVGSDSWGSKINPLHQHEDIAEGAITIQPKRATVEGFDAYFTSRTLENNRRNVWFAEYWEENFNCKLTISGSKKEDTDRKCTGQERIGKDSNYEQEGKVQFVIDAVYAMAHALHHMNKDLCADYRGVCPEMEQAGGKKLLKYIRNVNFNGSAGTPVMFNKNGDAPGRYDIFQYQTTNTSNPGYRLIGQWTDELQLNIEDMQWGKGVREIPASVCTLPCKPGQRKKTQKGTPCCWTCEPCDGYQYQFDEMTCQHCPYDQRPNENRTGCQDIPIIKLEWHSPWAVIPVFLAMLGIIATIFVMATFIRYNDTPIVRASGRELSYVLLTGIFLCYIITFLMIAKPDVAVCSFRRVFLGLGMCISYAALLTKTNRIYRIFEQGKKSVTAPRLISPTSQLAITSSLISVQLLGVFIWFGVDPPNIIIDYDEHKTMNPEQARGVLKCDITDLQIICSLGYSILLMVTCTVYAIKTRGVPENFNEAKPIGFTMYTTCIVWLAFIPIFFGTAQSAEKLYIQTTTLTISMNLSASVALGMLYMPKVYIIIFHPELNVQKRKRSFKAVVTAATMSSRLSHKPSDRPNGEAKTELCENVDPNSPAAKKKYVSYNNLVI
UniProt O00222, residues 34-908: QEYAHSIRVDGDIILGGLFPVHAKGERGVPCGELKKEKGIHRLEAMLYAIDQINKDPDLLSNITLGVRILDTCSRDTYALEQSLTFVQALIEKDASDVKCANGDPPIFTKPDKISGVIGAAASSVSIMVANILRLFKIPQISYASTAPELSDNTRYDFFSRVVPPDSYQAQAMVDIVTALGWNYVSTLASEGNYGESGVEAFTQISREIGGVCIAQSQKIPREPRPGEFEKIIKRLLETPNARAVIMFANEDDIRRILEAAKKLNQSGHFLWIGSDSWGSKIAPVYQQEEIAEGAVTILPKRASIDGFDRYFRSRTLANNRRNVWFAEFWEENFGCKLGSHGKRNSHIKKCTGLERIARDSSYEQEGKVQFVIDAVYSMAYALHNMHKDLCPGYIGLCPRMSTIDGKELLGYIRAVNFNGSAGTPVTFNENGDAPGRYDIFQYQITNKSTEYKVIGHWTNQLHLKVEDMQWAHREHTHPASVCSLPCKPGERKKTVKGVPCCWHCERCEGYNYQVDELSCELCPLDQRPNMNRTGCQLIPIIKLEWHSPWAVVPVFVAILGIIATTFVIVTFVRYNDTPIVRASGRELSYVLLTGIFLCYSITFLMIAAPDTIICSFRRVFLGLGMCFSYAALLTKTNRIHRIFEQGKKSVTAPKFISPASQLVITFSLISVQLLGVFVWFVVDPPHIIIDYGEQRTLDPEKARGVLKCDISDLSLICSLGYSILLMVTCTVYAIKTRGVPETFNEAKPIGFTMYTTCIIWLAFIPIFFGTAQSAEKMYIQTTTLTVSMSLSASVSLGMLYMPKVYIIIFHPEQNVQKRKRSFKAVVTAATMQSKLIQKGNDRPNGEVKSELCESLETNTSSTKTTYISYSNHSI
UniProt Q14832, residues 23-879: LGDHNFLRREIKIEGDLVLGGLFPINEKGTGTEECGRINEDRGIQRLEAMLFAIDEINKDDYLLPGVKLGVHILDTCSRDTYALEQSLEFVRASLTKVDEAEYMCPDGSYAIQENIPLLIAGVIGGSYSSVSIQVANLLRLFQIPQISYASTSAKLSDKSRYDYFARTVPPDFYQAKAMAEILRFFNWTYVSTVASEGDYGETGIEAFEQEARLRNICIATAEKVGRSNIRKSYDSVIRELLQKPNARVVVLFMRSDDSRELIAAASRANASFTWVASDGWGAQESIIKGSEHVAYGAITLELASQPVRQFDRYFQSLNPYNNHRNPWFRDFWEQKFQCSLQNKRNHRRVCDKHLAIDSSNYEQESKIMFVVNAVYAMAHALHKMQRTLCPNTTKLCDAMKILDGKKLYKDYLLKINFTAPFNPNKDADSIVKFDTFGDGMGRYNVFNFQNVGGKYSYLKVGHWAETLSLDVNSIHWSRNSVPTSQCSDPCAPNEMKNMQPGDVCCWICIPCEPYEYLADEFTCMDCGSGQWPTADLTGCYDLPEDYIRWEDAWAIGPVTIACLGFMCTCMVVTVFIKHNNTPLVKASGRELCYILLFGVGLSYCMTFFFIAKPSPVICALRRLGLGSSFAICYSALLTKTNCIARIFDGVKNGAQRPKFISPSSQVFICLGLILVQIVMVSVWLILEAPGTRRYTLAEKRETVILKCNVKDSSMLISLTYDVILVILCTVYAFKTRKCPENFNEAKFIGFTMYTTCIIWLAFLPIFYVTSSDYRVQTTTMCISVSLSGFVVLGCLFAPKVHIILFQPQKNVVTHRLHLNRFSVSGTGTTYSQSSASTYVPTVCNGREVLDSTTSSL

Columns and labels:
Experiment in all cases: split reporter
[1] = molecular target: human metabotropic glutamate receptor 4, NanoBit tagged (human) (UniProt Q14833)
[2] = molecular target: human metabotropic glutamate receptor 7, NanoBit tagged (human) (UniProt Q14831)
[3] = molecular target: human metabotropic glutamate receptor 8, NanoBit tagged (human) (UniProt O00222)

Measured: binding

human metabotropic glutamate receptor 3, NanoBit tagged (from UniProt Q14832 23-879)
binds: all assays above
